The source of these data is patent US20150182631A1, “SYSTEM FOR […]-BASED ACTIVE INGREDIENTS” (Centre National De La Recherche Scientifique-CNRS, priority 2012, published 2015).

This data set in a line: Confinement of fluorescein in the lectin cavity. The note with it: for confinement rate (fluorescein/protein ratio): protein 15 μM, fluorescein 10 mM, 11 independent experiments. On the procedure: The confinement experiments are carried out by incubating the wild-type protein (XCL) or the mutants (A38C) with the molecule to be tested. In order to carry out the control experiments with the mutant A38C, an oxidation step is carried out in the presence of GSSG in a phosphate buffer 50 mM, 100 mM NaCl, pH 7.2, OVN. The GSSG is then eliminated on a PD-10 sephadex G-25M column (GE Healthcare) pre-balanced in a phosphate buffer 50 mM, 100 mM NaCl, pH 8.5. The eluate is concentred at 1 ml on Vivaspin 15R 30,000 MWCO (Sartorius stedim). A batch of A38C is reduced to TCEP (under argon) with adding of NaOH for a final pH of 8.5. The proof of concept for the confinement was carried out with fluorescein at a concentration of 10 mM. The incubation is carried out for 1h at 25° C. in the phosphate buffer 50 mM, 100 mM NaCl. For the reduced mutant A38C another step of oxidation is carried out with GSSG, OVN. The free fluorescein is eliminated on a PD-10 sephadex G-25M column (GE Healthcare). The sample is then concentrated on Vivaspin 15R 30,000 MWCO (Sartorius stedim). […] The quantity of fluorescein is measured by using an absorption coefficient of e511 nm=75,000 cm^−1 M^−1. The concentrations of XCL and of A38C after the confinement are calculated with e278 nm=[…]. The percentage of confinement is calculated by forming the ratio of the fluorescein/protein concentrations.
In the case with XCL, the inventors incubated the protein (15 μM) with fluorescein (10 mM) and then separated the protein from the non-confined molecules of fluorescein by two successive gel filtration columns. Beforehand, the inventors verified that if these two columns on the fluorescein solution are carried out at 10 mM, no residual free fluorescein is detected. The fluorescein detected during the confinement is therefore necessarily linked to the protein or contained by the latter. […]
After this confinement steps and the elimination of the free fluorescein, the respective concentrations in fluorescein and in protein are determined via UV absorbance at 511 nm and at 280 nm. […]

Substitutions are numbered along the chain they refer to. In names and notes the source's numbering stands.

B1: XCL: Xerocomus chrysenteron lectin, fungal sporocarp lectin forming a tetramer with central cavity, SEQ ID NO: 1 (protein)
chain: MSYSITLRVYQTNRDRGYFSIVEKTVWHFANGGTWSEANGAHTLTQGGSGTSGVLRFLSTKGERITVAVGVHNYKRWCDVVTGLKPDETALVINPQYYNNGGRDYVREKQLAEYSVTSAIGTKVEVVYTVAEGNNLEANVIFS
modifications: Xerocomus chrysenteron
On to B1, for which the “confinement rate (fluorescein/protein ratio)” value is 9%.

B2: A38C: XCL variant with alanine 38 replaced by cysteine, SEQ ID NO: 2; A38R reduced before confinement, A38NR not reduced, A38Cox oxidised (protein)
chain: B1 chain with A38C
modifications: Variant A38C
notes: A38R reduced before confinement, A38NR not reduced, A38Cox oxidised
As for B2, the “confinement rate (fluorescein/protein ratio)” value is 14%. Besides, the “increase of the rate of confinement versus XCL” value (A38C in oxidised form after confinement) is recorded as “multiply the rate of confinement by two”.
